# Reference: patent publication US7939091B2, “Biorational repellents obtained from terpenoids for use against arthropods” (Iowa State University Research Foundation, Inc., priority 1999, dated 2011)
# Some entries share one result that the patent states for a list of compounds.
# Tested on: house fly, Musca domestica
# Assay: Choice-test arena bioassay (contact irritancy), house fly
# Assay type: in vivo
# Conditions: across application rates tested
# Method: A choice-test arena was used to assess irritancy of test solutions to two common household insect pests, the German cockroach (Blattella germanica) and the house fly (Musca domestica). Catnip essential oil obtained by steam distillation of catnip obtained from the same source as described in the above examples, and the two major components of its essential oil, Z,E-nepetalactone and E,Z-nepetalactone (isolated from the essential oil by preparative TLC), were evaluated for behavioral effects of contact irritancy to the German cockroach. The TLC was performed as described in McElvain, S. M. et al., J. Am. Chem. Soc., 1941, 63, 1558-1563. Catnip essential oil and its major constituent Z,E-nepetalactone were tested against the house fly. N,N-diethyl-m-toluamide (DEET) (Aldrich, St. Louis, Mo.) served as a positive control for the choice-test arena assay and as a point of comparison for measuring insect behavioral effects that result from current commercial insect repellents. […]
# Individual German cockroaches or house flies were placed in each choice-test arena through a centered hole in the lid of the Petri dish and evaluated for a 300-second period. The amount of time the insect spent on the treated and untreated filter papers were recorded and used to calculate a percentage repellency value: Percentage Repellency=((Time on Untreated-Time on Treated)/300)×100 […]
smiles,measurement,value
"CC1=COC(=O)[C@H]2[C@@H]1CC[C@@H]2C [Z,E-Nepetalactone, cis-trans nepetalactone]",higher percentage repellency values (text summary of Table 15),70-96%
